Laboratory results published in the supplement of paper PMC8728848.
The list shows a part of the results.

How the values were obtained:
Assay in all cases: glycan array binding signal (z-score within array); higher = stronger binding
Conditions in all cases: glycan notation: IUPAC condensed, linker removed
[1] = molecular target: Gal(b1-4)GlcNAc(b1-2)[Gal(b1-4)GlcNAc(b1-6)]Man(a1-6)[GlcNAc(b1-4)][Gal(b1-4)GlcNAc(b1-2)Man(a1-3)]Man(b1-4)GlcNAc(b1-4)GlcNAc
Procedure, shortened: (§1)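 From the Consortium for Functional Glycomics database, 3228 arrays were curated, keeping only those whose protein sequence was available. Binding is given as a within-array Z-score averaged across arrays sharing a protein sequence and across linkers. Negative Z-scores can be read as non-binding.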

[2] = molecular target: Gal(b1-4)GlcNAc(b1-2)[Gal(b1-4)GlcNAc(b1-6)]Man(a1-6)[GlcNAc(b1-4)][Gal(b1-4)GlcNAc(b1-2)[Gal(b1-4)GlcNAc(b1-4)]Man(a1-3)]Man(b1-4)GlcNAc(b1-4)[Fuc(a1-6)]GlcNAc
Procedure, shortened: as §1

[3] = molecular target: Gal(b1-4)GlcNAc(b1-3)Gal(b1-3)GalNAc
Procedure, shortened: as §1

[4] = molecular target: Gal(b1-4)GlcNAc(b1-3)Gal(b1-3)GlcNAc
Procedure, shortened: as §1

[5] = molecular target: Gal(b1-4)GlcNAc(b1-3)Gal(b1-4)Glc
Procedure, shortened: as §1

[6] = molecular target: Gal(b1-4)GlcNAc(b1-3)Gal(b1-4)GlcNAc
Procedure, shortened: as §1

[7] = molecular target: Gal(b1-4)GlcNAc(b1-3)Gal(b1-4)GlcNAc(b1-2)Man(a1-3)[Gal(b1-4)GlcNAc(b1-3)Gal(b1-4)GlcNAc(b1-2)Man(a1-6)]Man(b1-4)GlcNAc(b1-4)GlcNAc
Procedure, shortened: as §1

[8] = molecular target: Gal(b1-4)GlcNAc(b1-3)Gal(b1-4)GlcNAc(b1-2)Man(a1-3)[Gal(b1-4)GlcNAc(b1-3)Gal(b1-4)GlcNAc(b1-2)Man(a1-6)]Man(b1-4)GlcNAc(b1-4)[Fuc(a1-6)]GlcNAc
Procedure, shortened: as §1

[9] = molecular target: Gal(b1-4)GlcNAc(b1-3)Gal(b1-4)GlcNAc(b1-2)[Gal(b1-4)GlcNAc(b1-3)Gal(b1-4)GlcNAc(b1-6)]Man(a1-6)[Gal(b1-4)GlcNAc(b1-3)Gal(b1-4)GlcNAc(b1-2)Man(a1-3)]Man(b1-4)GlcNAc(b1-4)GlcNAc
Procedure, shortened: as §1

[10] = molecular target: Gal(b1-4)GlcNAc(b1-3)Gal(b1-4)GlcNAc(b1-2)[Gal(b1-4)GlcNAc(b1-3)Gal(b1-4)GlcNAc(b1-6)]Man(a1-6)[Gal(b1-4)GlcNAc(b1-3)Gal(b1-4)GlcNAc(b1-2)Man(a1-3)]Man(b1-4)GlcNAc(b1-4)[Fuc(a1-6)]GlcNAc
Procedure, shortened: as §1

[11] = molecular target: Gal(b1-4)GlcNAc(b1-3)Gal(b1-4)GlcNAc(b1-3)Gal(b1-4)GlcNAc
Procedure, shortened: as §1

[12] = molecular target: Gal(b1-4)GlcNAc(b1-3)Gal(b1-4)GlcNAc(b1-3)Gal(b1-4)GlcNAc(b1-2)Man(a1-3)[Gal(b1-4)GlcNAc(b1-3)Gal(b1-4)GlcNAc(b1-3)Gal(b1-4)GlcNAc(b1-2)Man(a1-6)]Man(b1-4)GlcNAc(b1-4)GlcNAc
Procedure, shortened: as §1

[13] = molecular target: Gal(b1-4)GlcNAc(b1-3)Gal(b1-4)GlcNAc(b1-3)Gal(b1-4)GlcNAc(b1-2)Man(a1-3)[Gal(b1-4)GlcNAc(b1-3)Gal(b1-4)GlcNAc(b1-3)Gal(b1-4)GlcNAc(b1-2)Man(a1-6)]Man(b1-4)GlcNAc(b1-4)[Fuc(a1-6)]GlcNAc
Procedure, shortened: as §1

[14] = molecular target: Gal(b1-4)GlcNAc(b1-3)Gal(b1-4)GlcNAc(b1-3)Gal(b1-4)GlcNAc(b1-2)[Gal(b1-4)GlcNAc(b1-3)Gal(b1-4)GlcNAc(b1-3)Gal(b1-4)GlcNAc(b1-6)]Man(a1-6)[Gal(b1-4)GlcNAc(b1-3)Gal(b1-4)GlcNAc(b1-3)Gal(b1-4)GlcNAc(b1-2)Man(a1-3)]Man(b1-4)GlcNAc(b1-4)[Fuc(a1-6)]GlcNAc
Procedure, shortened: as §1

[15] = molecular target: Gal(b1-4)GlcNAc(b1-3)Gal(b1-4)GlcNAc(b1-3)Gal(b1-4)GlcNAc(b1-3)Gal(b1-4)GlcNAc(b1-2)Man(a1-3)[Gal(b1-4)GlcNAc(b1-3)Gal(b1-4)GlcNAc(b1-3)Gal(b1-4)GlcNAc(b1-3)Gal(b1-4)GlcNAc(b1-2)Man(a1-6)]Man(b1-4)GlcNAc(b1-4)GlcNAc
Procedure, shortened: as §1

[16] = molecular target: Gal(b1-4)GlcNAc(b1-3)Gal(b1-4)GlcNAc(b1-3)Gal(b1-4)GlcNAc(b1-3)Gal(b1-4)GlcNAc(b1-2)Man(a1-3)[Gal(b1-4)GlcNAc(b1-3)Gal(b1-4)GlcNAc(b1-3)Gal(b1-4)GlcNAc(b1-3)Gal(b1-4)GlcNAc(b1-2)Man(a1-6)]Man(b1-4)GlcNAc(b1-4)[Fuc(a1-6)]GlcNAc
Procedure, shortened: as §1

[17] = molecular target: Gal(b1-4)GlcNAc(b1-3)Gal(b1-4)GlcNAc(b1-3)Gal(b1-4)GlcNAc(b1-3)Gal(b1-4)GlcNAc(b1-2)[Gal(b1-4)GlcNAc(b1-3)Gal(b1-4)GlcNAc(b1-3)Gal(b1-4)GlcNAc(b1-3)Gal(b1-4)GlcNAc(b1-6)]Man(a1-6)[Gal(b1-4)GlcNAc(b1-3)Gal(b1-4)GlcNAc(b1-3)Gal(b1-4)GlcNAc(b1-3)Gal(b1-4)GlcNAc(b1-2)Man(a1-3)]Man(b1-4)GlcNAc(b1-4)[Fuc(a1-6)]GlcNAc
Procedure, shortened: as §1

[18] = molecular target: Gal(b1-4)GlcNAc(b1-3)Gal(b1-4)GlcNAc(b1-3)Gal(b1-4)GlcNAc(b1-3)Gal(b1-4)GlcNAc(b1-3)Gal(b1-4)GlcNAc(b1-2)Man(a1-3)[Gal(b1-4)GlcNAc(b1-3)Gal(b1-4)GlcNAc(b1-3)Gal(b1-4)GlcNAc(b1-3)Gal(b1-4)GlcNAc(b1-3)Gal(b1-4)GlcNAc(b1-2)Man(a1-6)]Man(b1-4)GlcNAc(b1-4)GlcNAc
Procedure, shortened: as §1

[19] = molecular target: Gal(b1-4)GlcNAc(b1-3)Gal(b1-4)GlcNAc(b1-3)Gal(b1-4)GlcNAc(b1-3)Gal(b1-4)GlcNAc(b1-3)Gal(b1-4)GlcNAc(b1-2)Man(a1-3)[Gal(b1-4)GlcNAc(b1-3)Gal(b1-4)GlcNAc(b1-3)Gal(b1-4)GlcNAc(b1-3)Gal(b1-4)GlcNAc(b1-3)Gal(b1-4)GlcNAc(b1-2)Man(a1-6)]Man(b1-4)GlcNAc(b1-4)[Fuc(a1-6)]GlcNAc
Procedure, shortened: as §1

[20] = molecular target: Gal(b1-4)GlcNAc(b1-3)Gal(b1-4)GlcNAc(b1-3)Gal(b1-4)GlcNAc(b1-3)Gal(b1-4)GlcNAc(b1-3)Gal(b1-4)GlcNAc(b1-2)[Gal(b1-4)GlcNAc(b1-3)Gal(b1-4)GlcNAc(b1-3)Gal(b1-4)GlcNAc(b1-3)Gal(b1-4)GlcNAc(b1-3)Gal(b1-4)GlcNAc(b1-6)]Man(a1-6)[Gal(b1-4)GlcNAc(b1-3)Gal(b1-4)GlcNAc(b1-3)Gal(b1-4)GlcNAc(b1-3)Gal(b1-4)GlcNAc(b1-3)Gal(b1-4)GlcNAc(b1-2)Man(a1-3)]Man(b1-4)GlcNAc(b1-4)[Fuc(a1-6)]GlcNAc
Procedure, shortened: as §1

[21] = molecular target: Gal(b1-4)GlcNAc(b1-3)Gal(b1-4)GlcNAc(b1-3)Gal(b1-4)GlcNAc(b1-3)Gal(b1-4)GlcNAc(b1-3)Gal(b1-4)GlcNAc(b1-3)Gal(b1-4)GlcNAc(b1-2)Man(a1-3)[Gal(b1-4)GlcNAc(b1-3)Gal(b1-4)GlcNAc(b1-3)Gal(b1-4)GlcNAc(b1-3)Gal(b1-4)GlcNAc(b1-3)Gal(b1-4)GlcNAc(b1-3)Gal(b1-4)GlcNAc(b1-2)Man(a1-6)]Man(b1-4)GlcNAc(b1-4)GlcNAc
Procedure, shortened: as §1

[22] = molecular target: Gal(b1-4)GlcNAc(b1-3)Gal(b1-4)GlcNAc(b1-3)GalNAc
Procedure, shortened: as §1

[23] = molecular target: Gal(b1-4)GlcNAc(b1-3)Gal(b1-4)GlcNAc(b1-3)[Gal(b1-4)GlcNAc(b1-3)Gal(b1-4)GlcNAc(b1-6)]GalNAc
Procedure, shortened: as §1

B1: Tp0751, 83732 (protein)
chain: MSYYHHHHHHLESTSLYKKAGFQHGHVPPRRIPPHDTFGALPTAALPSNARDTAAHPSDTADNTSGSSTTTDPRSHGNAPPAPVGGAAQTHTQPPVQTAMRIALWNRATHGEQGALQHLLAGLWIQTEISPNSGDIHPLLFFDREHAEITFSRASVQEIFLVDSAHTHRKTVSFLTRNTAISSIRRRLEVTFESHEVIHVRAVEDVARLKIGSTSMWDGQYTRYHAGPASAPSP
- glycan array binding signal (z-score) [1]: -0.056
- glycan array binding signal (z-score) [2]: -0.637
- glycan array binding signal (z-score) [3]: 0.46
- glycan array binding signal (z-score) [4]: -0.642
- glycan array binding signal (z-score) [5]: -0.441
- glycan array binding signal (z-score) [6]: -0.102
- glycan array binding signal (z-score) [7]: 0.892
- glycan array binding signal (z-score) [8]: -0.361
- glycan array binding signal (z-score) [9]: 1.47
- glycan array binding signal (z-score) [10]: 0.08
- glycan array binding signal (z-score) [11]: 0.01
- glycan array binding signal (z-score) [12]: 0.252
- glycan array binding signal (z-score) [13]: -0.225
- glycan array binding signal (z-score) [14]: 0.196
- glycan array binding signal (z-score) [15]: 0.286
- glycan array binding signal (z-score) [16]: -0.275
- glycan array binding signal (z-score) [17]: 0.22
- glycan array binding signal (z-score) [18]: -0.277
- glycan array binding signal (z-score) [19]: -0.211
- glycan array binding signal (z-score) [20]: 0.639
- glycan array binding signal (z-score) [21]: -0.219
- glycan array binding signal (z-score) [22]: 1.22
- glycan array binding signal (z-score) [23]: 1.78
